# According to article doi:10.1101/059964:
# Amino acid sequences for entries named in this document (tags omitted).
# UniProt Q8IXJ9: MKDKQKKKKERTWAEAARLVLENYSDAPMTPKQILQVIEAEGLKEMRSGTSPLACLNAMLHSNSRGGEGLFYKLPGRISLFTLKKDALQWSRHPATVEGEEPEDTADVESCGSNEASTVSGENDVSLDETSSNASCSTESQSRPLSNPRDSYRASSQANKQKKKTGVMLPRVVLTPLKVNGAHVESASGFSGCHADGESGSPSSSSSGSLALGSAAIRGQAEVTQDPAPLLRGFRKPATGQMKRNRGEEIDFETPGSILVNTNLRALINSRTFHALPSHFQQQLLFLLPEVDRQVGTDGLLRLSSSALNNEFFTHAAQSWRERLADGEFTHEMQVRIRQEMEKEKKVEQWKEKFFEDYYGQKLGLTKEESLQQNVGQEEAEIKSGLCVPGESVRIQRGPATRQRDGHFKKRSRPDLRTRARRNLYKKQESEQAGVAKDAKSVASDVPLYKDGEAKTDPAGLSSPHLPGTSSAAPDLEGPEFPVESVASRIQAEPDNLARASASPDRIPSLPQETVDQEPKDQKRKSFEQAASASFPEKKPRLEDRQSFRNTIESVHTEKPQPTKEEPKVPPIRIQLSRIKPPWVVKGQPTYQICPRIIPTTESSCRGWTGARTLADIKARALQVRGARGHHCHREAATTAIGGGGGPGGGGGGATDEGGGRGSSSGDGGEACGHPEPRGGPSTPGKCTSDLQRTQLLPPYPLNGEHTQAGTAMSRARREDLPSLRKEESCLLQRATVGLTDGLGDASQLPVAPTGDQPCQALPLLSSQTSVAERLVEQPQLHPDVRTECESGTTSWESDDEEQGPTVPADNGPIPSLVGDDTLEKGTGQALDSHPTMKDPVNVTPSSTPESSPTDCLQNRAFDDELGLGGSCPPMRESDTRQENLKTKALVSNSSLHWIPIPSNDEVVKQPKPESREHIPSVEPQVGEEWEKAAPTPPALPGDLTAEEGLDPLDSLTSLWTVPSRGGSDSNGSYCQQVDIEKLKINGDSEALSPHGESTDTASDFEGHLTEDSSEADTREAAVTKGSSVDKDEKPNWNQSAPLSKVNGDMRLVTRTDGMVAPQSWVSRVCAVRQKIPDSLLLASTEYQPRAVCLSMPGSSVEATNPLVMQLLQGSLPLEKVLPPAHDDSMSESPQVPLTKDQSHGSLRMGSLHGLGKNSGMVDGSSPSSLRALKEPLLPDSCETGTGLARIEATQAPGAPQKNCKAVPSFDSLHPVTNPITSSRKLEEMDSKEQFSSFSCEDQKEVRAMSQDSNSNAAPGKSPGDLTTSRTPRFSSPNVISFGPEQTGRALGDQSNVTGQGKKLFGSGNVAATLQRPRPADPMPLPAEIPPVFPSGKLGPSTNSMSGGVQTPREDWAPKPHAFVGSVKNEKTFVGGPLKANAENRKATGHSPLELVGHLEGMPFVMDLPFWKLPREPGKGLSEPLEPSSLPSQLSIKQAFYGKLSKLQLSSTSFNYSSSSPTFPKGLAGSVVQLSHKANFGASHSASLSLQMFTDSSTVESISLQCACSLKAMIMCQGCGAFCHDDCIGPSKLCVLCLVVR
# UniProt Q9BSM1: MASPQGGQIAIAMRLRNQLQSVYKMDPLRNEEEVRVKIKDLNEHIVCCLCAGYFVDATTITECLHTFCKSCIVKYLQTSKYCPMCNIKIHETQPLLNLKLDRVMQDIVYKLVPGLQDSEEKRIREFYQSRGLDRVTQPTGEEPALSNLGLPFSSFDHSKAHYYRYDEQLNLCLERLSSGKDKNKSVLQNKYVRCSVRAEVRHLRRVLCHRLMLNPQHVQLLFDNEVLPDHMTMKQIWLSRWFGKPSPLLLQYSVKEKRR
# UniProt O43189: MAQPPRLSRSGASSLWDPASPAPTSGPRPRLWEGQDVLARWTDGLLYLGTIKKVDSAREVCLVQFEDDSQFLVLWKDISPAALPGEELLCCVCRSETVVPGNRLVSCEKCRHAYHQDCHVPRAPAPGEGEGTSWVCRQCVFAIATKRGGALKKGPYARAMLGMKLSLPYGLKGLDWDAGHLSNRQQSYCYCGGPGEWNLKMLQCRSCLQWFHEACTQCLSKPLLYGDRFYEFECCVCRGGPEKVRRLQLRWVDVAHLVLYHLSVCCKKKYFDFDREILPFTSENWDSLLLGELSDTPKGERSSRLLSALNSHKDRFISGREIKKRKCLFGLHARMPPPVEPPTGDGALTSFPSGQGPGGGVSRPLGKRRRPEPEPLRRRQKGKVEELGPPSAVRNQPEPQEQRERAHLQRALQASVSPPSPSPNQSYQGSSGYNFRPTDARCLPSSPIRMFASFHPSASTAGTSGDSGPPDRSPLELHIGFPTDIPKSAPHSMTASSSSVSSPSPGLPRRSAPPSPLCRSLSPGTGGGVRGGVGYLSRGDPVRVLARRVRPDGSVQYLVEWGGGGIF
# UniProt Q969R5: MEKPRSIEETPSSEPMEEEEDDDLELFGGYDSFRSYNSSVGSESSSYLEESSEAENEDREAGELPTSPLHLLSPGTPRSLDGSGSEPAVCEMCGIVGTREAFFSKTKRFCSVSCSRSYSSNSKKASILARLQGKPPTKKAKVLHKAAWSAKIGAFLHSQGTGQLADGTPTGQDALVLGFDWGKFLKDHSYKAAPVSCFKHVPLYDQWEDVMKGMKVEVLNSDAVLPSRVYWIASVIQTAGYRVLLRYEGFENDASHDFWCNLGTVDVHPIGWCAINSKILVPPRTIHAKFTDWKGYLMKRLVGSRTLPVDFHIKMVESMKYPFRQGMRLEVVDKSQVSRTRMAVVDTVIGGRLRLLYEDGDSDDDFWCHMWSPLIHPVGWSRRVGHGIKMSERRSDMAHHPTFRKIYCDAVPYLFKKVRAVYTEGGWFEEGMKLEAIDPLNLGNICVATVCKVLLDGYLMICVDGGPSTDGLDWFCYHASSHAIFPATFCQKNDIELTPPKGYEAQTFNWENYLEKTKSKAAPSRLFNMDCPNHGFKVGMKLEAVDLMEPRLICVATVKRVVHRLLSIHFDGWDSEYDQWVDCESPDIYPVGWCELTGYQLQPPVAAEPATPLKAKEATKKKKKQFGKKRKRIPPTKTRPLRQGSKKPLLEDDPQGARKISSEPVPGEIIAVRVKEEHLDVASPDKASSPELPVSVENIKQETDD
# UniProt Q06587: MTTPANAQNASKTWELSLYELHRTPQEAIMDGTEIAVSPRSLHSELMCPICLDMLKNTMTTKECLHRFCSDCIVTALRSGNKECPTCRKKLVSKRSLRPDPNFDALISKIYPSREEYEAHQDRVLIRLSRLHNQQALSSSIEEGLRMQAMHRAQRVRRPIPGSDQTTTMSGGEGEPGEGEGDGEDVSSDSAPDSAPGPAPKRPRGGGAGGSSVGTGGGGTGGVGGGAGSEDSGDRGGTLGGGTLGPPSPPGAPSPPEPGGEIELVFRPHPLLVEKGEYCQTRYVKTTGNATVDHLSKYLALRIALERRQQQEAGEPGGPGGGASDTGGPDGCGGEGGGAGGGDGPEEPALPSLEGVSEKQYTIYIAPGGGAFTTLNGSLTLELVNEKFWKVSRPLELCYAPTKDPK
# UniProt Q86SE9: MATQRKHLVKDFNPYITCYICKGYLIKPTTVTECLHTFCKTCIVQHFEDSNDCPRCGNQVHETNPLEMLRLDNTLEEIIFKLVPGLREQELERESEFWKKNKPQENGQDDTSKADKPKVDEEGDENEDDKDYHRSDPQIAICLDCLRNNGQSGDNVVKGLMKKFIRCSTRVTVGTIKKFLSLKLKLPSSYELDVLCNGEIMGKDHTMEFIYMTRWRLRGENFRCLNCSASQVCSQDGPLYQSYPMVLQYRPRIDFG
# UniProt Q99496: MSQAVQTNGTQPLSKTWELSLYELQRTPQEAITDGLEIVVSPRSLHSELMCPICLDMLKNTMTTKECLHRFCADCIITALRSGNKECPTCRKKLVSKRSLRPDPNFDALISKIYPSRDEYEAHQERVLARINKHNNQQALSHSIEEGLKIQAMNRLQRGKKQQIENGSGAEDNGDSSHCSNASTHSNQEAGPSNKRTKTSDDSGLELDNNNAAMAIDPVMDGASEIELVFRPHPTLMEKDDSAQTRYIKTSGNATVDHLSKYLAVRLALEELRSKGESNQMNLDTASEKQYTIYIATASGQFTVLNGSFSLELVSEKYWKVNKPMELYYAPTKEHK
# UniProt Q13185: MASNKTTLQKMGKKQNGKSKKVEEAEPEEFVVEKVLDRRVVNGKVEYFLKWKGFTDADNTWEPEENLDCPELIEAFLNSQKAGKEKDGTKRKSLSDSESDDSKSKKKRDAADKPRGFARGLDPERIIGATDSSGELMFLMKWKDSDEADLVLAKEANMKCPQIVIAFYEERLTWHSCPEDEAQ
# UniProt P83916: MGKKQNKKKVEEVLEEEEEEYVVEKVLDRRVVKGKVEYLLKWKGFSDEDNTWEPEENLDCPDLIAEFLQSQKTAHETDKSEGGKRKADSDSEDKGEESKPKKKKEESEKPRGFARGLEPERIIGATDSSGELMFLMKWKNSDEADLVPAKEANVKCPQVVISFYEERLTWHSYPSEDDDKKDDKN
# UniProt A6NHQ4: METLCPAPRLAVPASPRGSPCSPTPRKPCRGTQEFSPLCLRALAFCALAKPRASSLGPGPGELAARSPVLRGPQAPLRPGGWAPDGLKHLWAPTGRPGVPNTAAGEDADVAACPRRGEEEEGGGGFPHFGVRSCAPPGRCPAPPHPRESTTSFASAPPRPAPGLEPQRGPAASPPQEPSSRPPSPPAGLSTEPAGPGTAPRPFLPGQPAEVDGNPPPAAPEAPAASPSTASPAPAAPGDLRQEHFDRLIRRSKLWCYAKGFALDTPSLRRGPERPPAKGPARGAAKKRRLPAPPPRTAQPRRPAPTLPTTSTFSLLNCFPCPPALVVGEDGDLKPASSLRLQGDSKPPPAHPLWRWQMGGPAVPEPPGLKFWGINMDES
# UniProt O95785: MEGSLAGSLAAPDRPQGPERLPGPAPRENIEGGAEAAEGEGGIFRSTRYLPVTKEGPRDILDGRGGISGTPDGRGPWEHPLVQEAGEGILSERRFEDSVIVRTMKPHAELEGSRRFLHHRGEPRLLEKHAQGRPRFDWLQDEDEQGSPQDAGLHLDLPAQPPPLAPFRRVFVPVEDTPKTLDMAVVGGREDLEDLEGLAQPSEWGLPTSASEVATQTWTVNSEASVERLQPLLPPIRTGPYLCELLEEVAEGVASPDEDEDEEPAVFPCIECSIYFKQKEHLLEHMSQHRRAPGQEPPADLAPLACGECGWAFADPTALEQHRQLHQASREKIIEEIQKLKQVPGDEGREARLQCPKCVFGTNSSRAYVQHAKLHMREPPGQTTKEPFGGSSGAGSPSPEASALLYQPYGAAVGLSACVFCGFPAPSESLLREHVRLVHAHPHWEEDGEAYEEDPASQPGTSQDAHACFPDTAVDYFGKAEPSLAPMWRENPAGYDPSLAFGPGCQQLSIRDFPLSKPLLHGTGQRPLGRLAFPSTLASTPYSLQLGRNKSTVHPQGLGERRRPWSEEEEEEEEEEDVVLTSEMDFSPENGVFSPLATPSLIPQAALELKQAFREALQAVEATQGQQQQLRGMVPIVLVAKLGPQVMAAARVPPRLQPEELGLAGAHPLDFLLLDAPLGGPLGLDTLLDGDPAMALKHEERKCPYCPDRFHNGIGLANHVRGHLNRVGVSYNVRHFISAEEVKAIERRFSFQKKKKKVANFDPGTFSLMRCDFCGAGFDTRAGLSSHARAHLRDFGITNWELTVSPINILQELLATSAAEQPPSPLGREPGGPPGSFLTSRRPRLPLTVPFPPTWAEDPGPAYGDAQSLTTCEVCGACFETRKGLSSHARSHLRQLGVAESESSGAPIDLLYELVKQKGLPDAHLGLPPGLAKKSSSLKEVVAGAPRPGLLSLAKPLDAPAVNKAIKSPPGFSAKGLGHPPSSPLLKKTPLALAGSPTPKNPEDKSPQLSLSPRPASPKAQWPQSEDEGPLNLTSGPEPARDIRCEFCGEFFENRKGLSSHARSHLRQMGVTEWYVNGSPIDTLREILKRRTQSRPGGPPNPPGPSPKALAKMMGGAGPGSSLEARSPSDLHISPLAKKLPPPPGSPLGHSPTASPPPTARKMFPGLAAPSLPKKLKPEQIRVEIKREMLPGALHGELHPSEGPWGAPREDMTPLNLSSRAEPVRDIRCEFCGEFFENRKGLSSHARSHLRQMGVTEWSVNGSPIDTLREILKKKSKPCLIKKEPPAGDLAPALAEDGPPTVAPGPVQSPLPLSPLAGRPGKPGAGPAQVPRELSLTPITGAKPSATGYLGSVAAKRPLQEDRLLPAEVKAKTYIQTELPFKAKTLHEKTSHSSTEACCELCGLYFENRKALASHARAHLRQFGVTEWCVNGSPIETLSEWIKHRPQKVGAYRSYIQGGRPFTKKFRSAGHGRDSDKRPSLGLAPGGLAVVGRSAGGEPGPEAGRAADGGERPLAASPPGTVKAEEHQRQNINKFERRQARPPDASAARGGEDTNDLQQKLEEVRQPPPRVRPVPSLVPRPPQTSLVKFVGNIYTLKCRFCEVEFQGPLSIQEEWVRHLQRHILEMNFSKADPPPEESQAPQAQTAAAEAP
# Legend:
# Test in all cases: affinity purification with mass spectrometry
# RBBP7 (human) = RBBP7 (human) (UniProt Q16576)
# OGT1 (human) = molecular target: T1, OGT1 (human) (UniProt O15294)
# T1 sequence: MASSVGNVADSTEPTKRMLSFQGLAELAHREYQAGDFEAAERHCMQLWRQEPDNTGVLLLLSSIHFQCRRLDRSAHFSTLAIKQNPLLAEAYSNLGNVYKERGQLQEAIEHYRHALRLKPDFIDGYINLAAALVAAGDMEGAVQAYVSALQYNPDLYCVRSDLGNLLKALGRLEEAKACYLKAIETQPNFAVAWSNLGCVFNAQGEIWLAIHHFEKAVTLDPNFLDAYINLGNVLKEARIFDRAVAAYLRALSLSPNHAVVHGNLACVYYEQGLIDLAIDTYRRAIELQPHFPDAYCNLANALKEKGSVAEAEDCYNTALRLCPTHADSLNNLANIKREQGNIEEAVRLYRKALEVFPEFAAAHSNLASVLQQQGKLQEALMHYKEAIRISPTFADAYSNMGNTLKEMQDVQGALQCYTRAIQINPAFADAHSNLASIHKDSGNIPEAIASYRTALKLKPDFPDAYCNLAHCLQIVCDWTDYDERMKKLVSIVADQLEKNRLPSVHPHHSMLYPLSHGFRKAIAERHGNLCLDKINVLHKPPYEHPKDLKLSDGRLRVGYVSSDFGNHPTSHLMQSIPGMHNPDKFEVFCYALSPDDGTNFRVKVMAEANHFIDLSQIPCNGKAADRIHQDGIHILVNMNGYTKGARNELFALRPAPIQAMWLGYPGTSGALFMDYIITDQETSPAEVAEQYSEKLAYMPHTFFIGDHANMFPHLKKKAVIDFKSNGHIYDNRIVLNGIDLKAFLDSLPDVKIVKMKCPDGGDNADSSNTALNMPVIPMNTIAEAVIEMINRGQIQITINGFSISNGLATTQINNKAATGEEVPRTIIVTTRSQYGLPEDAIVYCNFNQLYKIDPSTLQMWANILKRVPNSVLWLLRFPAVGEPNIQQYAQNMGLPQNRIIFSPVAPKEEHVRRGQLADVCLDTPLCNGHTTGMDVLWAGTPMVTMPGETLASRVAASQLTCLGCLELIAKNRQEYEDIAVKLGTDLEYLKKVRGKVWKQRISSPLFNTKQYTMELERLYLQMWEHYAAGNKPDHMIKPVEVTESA
# ASXL2 (human) = ASXL2 (human) (UniProt Q76L83)
# ASXL1 (human) = ASXL1 (human) (UniProt Q8IXJ9)
# PCGF1 (human) = PCGF1 (human) (UniProt Q9BSM1)
# MTF2 (human) = MTF2 (human) (UniProt Q9Y483)
# PHF1 (human) = PHF1 (human) (UniProt O43189)
# PHF19 (human) = PHF19 (human) (UniProt Q5T6S3)
# EZH2 (human) = EZH2 (human) (UniProt Q15910)
# EZH1 (human) = EZH1 (human) (UniProt Q92800)
# EED (human) = EED (human) (UniProt O75530)
# LMBL2 (human) = LMBL2 (human) (UniProt Q969R5)
# MAX (human) = MAX (human) (UniProt P61244)
# TFDP1 (human) = TFDP1 (human) (UniProt Q14186)
# E2F6 (human) = E2F6 (human) (UniProt O75461)
# PCGF3 (human) = molecular target: T2, PCGF3 (human) (UniProt Q3KNV8)
# T2 sequence: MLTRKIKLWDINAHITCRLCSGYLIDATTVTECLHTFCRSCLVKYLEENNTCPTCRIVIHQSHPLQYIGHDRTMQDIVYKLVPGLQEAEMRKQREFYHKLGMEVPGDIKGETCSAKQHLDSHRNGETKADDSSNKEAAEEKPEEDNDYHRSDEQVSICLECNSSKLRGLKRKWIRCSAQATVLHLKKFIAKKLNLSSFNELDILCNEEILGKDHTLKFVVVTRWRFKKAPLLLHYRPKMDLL
# RING1 (human) = RING1 (human) (UniProt Q06587)
# DCAF7 (human) = molecular target: T3, DCAF7 (human) (UniProt P61962)
# T3 sequence: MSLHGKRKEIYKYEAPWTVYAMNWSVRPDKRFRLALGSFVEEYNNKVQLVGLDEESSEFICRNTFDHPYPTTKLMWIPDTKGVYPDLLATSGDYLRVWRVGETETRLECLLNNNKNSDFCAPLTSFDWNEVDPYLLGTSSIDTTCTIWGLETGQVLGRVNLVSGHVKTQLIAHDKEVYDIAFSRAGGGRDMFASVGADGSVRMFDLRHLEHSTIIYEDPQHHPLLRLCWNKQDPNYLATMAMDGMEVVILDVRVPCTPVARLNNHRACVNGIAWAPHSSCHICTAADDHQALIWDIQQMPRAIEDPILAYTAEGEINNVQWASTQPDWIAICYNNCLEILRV
# PCGF5 (human) = PCGF5 (human) (UniProt Q86SE9)
# YAF2 (human) = molecular target: T4, YAF2 (human) (UniProt Q8IY57)
# T4 sequence: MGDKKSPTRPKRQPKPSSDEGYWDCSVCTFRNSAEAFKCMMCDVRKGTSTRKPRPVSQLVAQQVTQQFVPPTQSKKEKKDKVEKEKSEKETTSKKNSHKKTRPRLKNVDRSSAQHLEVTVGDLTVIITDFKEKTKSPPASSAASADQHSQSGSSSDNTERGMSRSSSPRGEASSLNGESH
# RING2 (human) = RING2 (human) (UniProt Q99496)
# CBX3 (human) = CBX3 (human) (UniProt Q13185)
# CBX1 (human) = CBX1 (human) (UniProt P83916)
# RYBP (human) = molecular target: T5, RYBP (human) (UniProt Q8N488)
# T5 sequence: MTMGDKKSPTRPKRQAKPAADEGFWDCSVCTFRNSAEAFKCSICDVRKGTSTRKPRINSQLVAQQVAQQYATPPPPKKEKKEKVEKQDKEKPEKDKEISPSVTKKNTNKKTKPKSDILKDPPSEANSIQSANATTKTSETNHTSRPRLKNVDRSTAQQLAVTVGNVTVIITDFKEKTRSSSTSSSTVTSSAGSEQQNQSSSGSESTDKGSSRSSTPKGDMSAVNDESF
# C17ORF96 (human) = C17ORF96 (human) (UniProt A6NHQ4)
# C10ORF12 (human) = C10ORF12 (human) (UniProt Q96JN0)
# SUZ12 (human) = SUZ12 (human) (UniProt Q15022)
# CSK21 (human) = CSK21 (human) (UniProt P68400)
# CSK22 (human) = CSK22 (human) (UniProt P19784)
# EHMT2 (human) = EHMT2 (human) (UniProt Q96KQ7)
substance,measurement,setting,value
AEBP2 (from UniProt Q6ZN18 1-517),binding,RBBP7 (human),binds
ASH2L (from UniProt Q9UBL3 1-628),binding,OGT1 (human),binds
ASXL1 (from UniProt Q8IXJ9 1-1541),binding,ASXL2 (human),no binding
ASXL2 (from UniProt Q76L83 1-1435),binding,ASXL1 (human),no binding
BCOR (from UniProt Q6W2J9 1-1755),binding,PCGF1 (human),binds
BCORL (from UniProt Q5H9F3 1-1785),binding,PCGF1 (human),binds
C10ORF12 (from UniProt Q96JN0-3),binding,MTF2 (human),binds
same,binding,PHF1 (human),binds
same,binding,PHF19 (human),binds
C17ORF96 (from UniProt A6NHQ4 1-379),binding,MTF2 (human),binds
same,binding,PHF1 (human),binds
same,binding,EZH2 (human),binds
same,binding,RBBP7 (human),binds
same,binding,EZH1 (human),binds
same,binding,EED (human),binds
CBX3 (from UniProt Q13185 1-183),binding,LMBL2 (human),binds
same,binding,MAX (human),binds
same,binding,TFDP1 (human),binds
same,binding,E2F6 (human),binds
CSK21 (from UniProt P68400 1-391),binding,PCGF3 (human),binds
same,binding,RING1 (human),binds
same,binding,DCAF7 (human),binds
same,binding,PCGF5 (human),binds
same,binding,YAF2 (human),binds
same,binding,RING2 (human),binds
CSK22 (from UniProt P19784 1-350),binding,PCGF3 (human),binds
same,binding,RING1 (human),binds
same,binding,DCAF7 (human),binds
same,binding,PCGF5 (human),binds
same,binding,YAF2 (human),binds
same,binding,RING2 (human),binds
DIAP1 (from UniProt O60610 1-1272),binding,DCAF7 (human),binds
E2F6 (from UniProt O75461 1-281),binding,LMBL2 (human),binds
same,binding,MAX (human),binds
same,binding,TFDP1 (human),binds
same,binding,CBX3 (human),binds
EHMT1 (from UniProt Q9H9B1 1-1298),binding,CBX3 (human),binds
same,binding,CBX1 (human),binds
EHMT2 (from UniProt Q96KQ7 1-1210),binding,CBX3 (human),binds
same,binding,CBX1 (human),binds
FBSL (from UniProt Q9HCM7 1-1045),binding,RYBP (human),binds
same,binding,PCGF3 (human),binds
same,binding,RING1 (human),binds
same,binding,DCAF7 (human),binds
same,binding,PCGF5 (human),binds
same,binding,YAF2 (human),binds
same,binding,RING2 (human),binds
FOXK2 (from UniProt Q01167 1-660),binding,ASXL1 (human),binds
same,binding,ASXL2 (human),binds
JARD2 (from UniProt Q92833 1-1246),binding,RBBP7 (human),binds
LMBL2 (from UniProt Q969R5 1-705),binding,MAX (human),binds
same,binding,TFDP1 (human),binds
same,binding,CBX3 (human),binds
same,binding,E2F6 (human),binds
MAX (from UniProt P61244 1-160),binding,LMBL2 (human),binds
same,binding,TFDP1 (human),binds
same,binding,CBX3 (human),binds
same,binding,E2F6 (human),binds
MLL1 (from UniProt Q03164),binding,OGT1 (human),binds
MTF2 (from UniProt Q9Y483 1-593),binding,EZH2 (human),binds
same,binding,RBBP7 (human),binds
same,binding,EZH1 (human),binds
same,binding,C17ORF96 (human),binds
same,binding,C10ORF12 (human),binds
same,binding,EED (human),binds
same,binding,SUZ12 (human),binds
PCGF1 (from UniProt Q9BSM1 1-259),binding,RYBP (human),binds
same,binding,RING1 (human),binds
same,binding,YAF2 (human),binds
PCGF4 (from UniProt P35226 1-326),binding,RYBP (human),binds
same,binding,RING1 (human),binds
same,binding,YAF2 (human),binds
PCGF5 (from UniProt Q86SE9 1-256),binding,RYBP (human),binds
same,binding,CSK21 (human),binds
same,binding,RING1 (human),binds
same,binding,DCAF7 (human),binds
same,binding,CSK22 (human),binds
same,binding,YAF2 (human),binds
same,binding,RING2 (human),binds
PHF1 (from UniProt O43189 1-567),binding,EZH2 (human),binds
same,binding,RBBP7 (human),binds
same,binding,EZH1 (human),binds
same,binding,C17ORF96 (human),binds
same,binding,C10ORF12 (human),binds
same,binding,EED (human),binds
same,binding,SUZ12 (human),binds
PHF19 (from UniProt Q5T6S3 1-580),binding,RBBP7 (human),binds
same,binding,EZH1 (human),binds
same,binding,C10ORF12 (human),binds
same,binding,EED (human),binds
RBBP5 (from UniProt Q15291 1-538),binding,OGT1 (human),binds
RING1 (from UniProt Q06587 1-406),binding,RING2 (human),no binding
SET1A (from UniProt O15047 1-1707),binding,OGT1 (human),binds
SKP1 (from UniProt P63208 1-163),binding,PCGF1 (human),binds
TFDP1 (from UniProt Q14186 1-410),binding,LMBL2 (human),binds
same,binding,MAX (human),binds
same,binding,CBX3 (human),binds
same,binding,E2F6 (human),binds
TIF1B (from UniProt Q13263 1-835),binding,EHMT2 (human),binds
same,binding,CBX1 (human),binds
WIZ (from UniProt O95785 1-1651),binding,EHMT2 (human),binds
same,binding,CBX3 (human),binds
same,binding,CBX1 (human),binds
ZN462 (from UniProt Q96JM2 1-2506),binding,EHMT2 (human),binds
same,binding,CBX3 (human),binds
same,binding,CBX1 (human),binds
ZN503 (from UniProt Q96F45 1-646),binding,DCAF7 (human),binds
ZN703 (from UniProt Q9H7S9 1-590),binding,DCAF7 (human),binds

# Results are given in words; binding and its absence hold for the method and conditions named. Binding seen in cells or lysates may run through a third protein. These calls come from enrichment with a bait or labelling near it, and not all partners need be listed. For part of these data: No binding means not detected with the bait.
